Values from PubChem BioAssay AID743454 (Peter MacCallum Cancer Centre, 2014)
In all, the deposit lists about 18,000 reagents; below is an unselected part. 450 of them (2.5%) were called active. 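Single biological run; no consistent viability z cut-off exists, so the class columns, not z-scores, define the calls.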 A number with no mark means an inactive call.

Test: 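Knock-downs lowering viability or raising caspase 3/7 activity in vorinostat-treated resistant cells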 (primary screen)
System: human HCT116-VR colon cancer cells, selected for vorinostat resistance
Reagents: siRNA pool against human genes, 40 nM siRNA pool
Time to read-out: vorinostat for 24 h, read-out about 72 h after transfection
Challenge: vorinostat at 2.5 µM final
Detection: 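Cell viability by CellTiter-Fluor and caspase 3/7 activity by luminescence, each scaled to mock wells per plate, duplicates averaged, then robust z-scored over all plates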
Direction: viability robust z-score: higher = more viable cells than screen typical; caspase robust z-score: higher = more caspase 3/7 activity than screen typical
Active means: 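Hits are knock-downs in viability class RV1/RV2 or caspase class CA1/CA2, excluding ones that killed cells in the no-drug cell-count arm; hits then retested with single siRNAs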

| Gene | PubChem SID | viability hit class | caspase hit class | viability robust z-score | caspase robust z-score |
| --- | --- | --- | --- | --- | --- |
| OR1J2 (GeneID 26740) | SID135624547 | no change | no change | 0.14 | 0.3 |
| SLC4A8 (GeneID 9498) | SID152155359 | no change | no change | 0.42 | 0.29 |
| ADRA1D (GeneID 146) | SID152149085 | no change | no change | -0.46 | -0.82 |
| FAM228A (GeneID 653140) | SID135625531 | no change | no change | -2 | 2.38 |
| NPTN (GeneID 27020) | SID152154716 | no change | no change | -0.03 | -0.64 |
| SPATS1 (GeneID 221409) | SID134320535 | no change | no change | -0.39 | -0.86 |
| FBRS (GeneID 64319) | SID152150915 | no change | no change | -0.83 | 1.67 |
| KCNK12 (GeneID 56660) | SID134311674 | no change | no change | -0.08 | 1.35 |
| PRKAR2B (GeneID 5577) | SID56479179 | no change | no change | -0.6 | -0.14 |
| AIM2 (GeneID 9447) | SID134316261 | no change | no change | -0.39 | -0.76 |
| ADRA1B (GeneID 147) | SID135620984 | no change | no change | -1.1 | 1.91 |
| AGRN (GeneID 375790) | SID152155413 | no change | no change | -0.26 | 2.06 |
| USP22 (GeneID 23326) | SID135621138 | no change | no change | 0.11 | -1.08 |
| PRDM15 (GeneID 63977) | SID152148629 | no change | no change | 2.66 | 0.83 |
| LRRN4CL (GeneID 221091) | SID135625017 | no change | no change | 0.92 | -0.54 |
| LRRC4 (GeneID 64101) | SID152151205 | no change | no change | -1.48 | 0.82 |
| AZU1 (GeneID 566) | SID56479220 | no change | no change | -0.16 | -0.9 |
| UBE2Z (GeneID 65264) | SID152154094 | no change | no change | -0.55 | -0.12 |
| SPANXD (GeneID 64648) | SID135623330 | no change | no change | -4.15 | -0.53 |
| SPANXD (GeneID 64648) | SID135623331 | no change | no change | -4.11 | -0.9 |
| GPR174 (GeneID 84636) | SID135621002 | no change | no change | -2.46 | -1.37 |
| POFUT2 (GeneID 23275) | SID152148985 | no change | no change | -1.15 | 0.93 |
| SLC45A3 (GeneID 85414) | SID152146854 | no change | no change | -0.38 | -1.29 |

In a second layout: 2 of the entries above.
{"Gene": "USP22 (GeneID 23326)", "PubChem SID": "SID135621138", "viability hit class": "no change", "caspase hit class": "no change", "viability robust z-score": 0.11, "caspase robust z-score": -1.08}
{"Gene": "PRDM15 (GeneID 63977)", "PubChem SID": "SID152148629", "viability hit class": "no change", "caspase hit class": "no change", "viability robust z-score": 2.66, "caspase robust z-score": 0.83}
